# Measurements: patent US12161763B2, “Formulation and method for increasing oral bioavailability of drugs” (Yissum Research Development Company of the Hebrew …, priority 2012, dated 2024)
# Where a name gives a salt, the structure may show the parent alone.
# Legend:
# CYP3A4 = details: rat, microsomes, 2 h
# in vivo = details: male, Wistar, rat, plasma, po, 12.5 mg/kg
# [1] = AM oral bioavailability and blank nano-lipospheres co-administration PK studies; details: PO 12.5 mg/kg AM, rats
smiles,measurement,setting,value
"CCCCc1oc2ccccc2c1C(=O)c1cc(I)c(OCCN(CC)CC)c(I)c1 [AM, Amiodarone HCl]",intact AM concentrations remaining,CYP3A4,68.57±1.17%
same,AUC,in vivo,4540 ± 2600 ng·h/mL
same,CL/F,in vivo,40.2 mL/min/kg
same,Cmax,in vivo,360 ± 70 ng/mL
same,V/F,[1],34.32 ± 5.447 L/kg
